Experimental data reported in the M2OR odorant receptor database.
Changes are numbered by the printed parent chain. The entries are a selection whose mix differs from that of the whole data set. The calls were merged from several studies; some rest on single wells. The list shows a part of the results.

The chains behind the UniProt entries cited, without tags or fusion partners. Where a name states a change or a piece, a line headed by the entry shows the natural chain unless it says otherwise.
UniProt Q8NGZ5: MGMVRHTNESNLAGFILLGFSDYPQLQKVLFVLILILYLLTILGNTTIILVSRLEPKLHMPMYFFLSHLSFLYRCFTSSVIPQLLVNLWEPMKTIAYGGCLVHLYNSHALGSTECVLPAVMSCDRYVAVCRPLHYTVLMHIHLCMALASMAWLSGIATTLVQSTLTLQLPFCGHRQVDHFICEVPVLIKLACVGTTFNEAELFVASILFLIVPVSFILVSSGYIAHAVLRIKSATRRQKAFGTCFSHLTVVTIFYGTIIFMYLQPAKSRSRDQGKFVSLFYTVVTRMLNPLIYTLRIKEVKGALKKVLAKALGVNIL

Tests used:
Details in all cases: stereoisomer not certain
[1] = tested on: T1, OR2C3
T1 sequence (whole entry): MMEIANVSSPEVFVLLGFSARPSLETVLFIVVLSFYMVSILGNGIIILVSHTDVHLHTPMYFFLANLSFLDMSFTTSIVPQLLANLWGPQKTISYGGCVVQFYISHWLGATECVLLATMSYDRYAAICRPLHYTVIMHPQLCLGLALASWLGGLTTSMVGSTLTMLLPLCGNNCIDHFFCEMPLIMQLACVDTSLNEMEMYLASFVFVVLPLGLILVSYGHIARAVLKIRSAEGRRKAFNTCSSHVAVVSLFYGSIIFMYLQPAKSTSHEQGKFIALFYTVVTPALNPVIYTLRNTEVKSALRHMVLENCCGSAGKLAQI
How it was run: (§1)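 Values were gathered from published papers (main text and supplementary material), with extra details requested from the original authors when needed, and checked for typos and inconsistencies. Each receptor–molecule pair is called responsive (active) if the original authors judged the measured signal statistically different from baseline, and non-responsive (inactive) otherwise. Assay methods varied by source, often transient mammalian cell-line luciferase assays. Recorded details include cell line, G-protein, co-transfected protein and tags.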

[2] = target: T2, OR2D2 (Homo sapiens) (UniProt Q9H210)
T2 sequence (whole entry): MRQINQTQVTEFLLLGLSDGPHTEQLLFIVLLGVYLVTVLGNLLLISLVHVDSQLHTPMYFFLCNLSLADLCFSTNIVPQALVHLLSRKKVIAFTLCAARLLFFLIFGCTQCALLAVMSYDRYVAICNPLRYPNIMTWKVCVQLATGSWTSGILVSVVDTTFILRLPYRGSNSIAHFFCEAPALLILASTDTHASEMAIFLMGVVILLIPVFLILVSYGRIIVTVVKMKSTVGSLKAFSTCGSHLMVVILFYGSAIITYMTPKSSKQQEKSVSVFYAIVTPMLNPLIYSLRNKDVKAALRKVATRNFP
How it was run: as §1

[3] = tested on: T3, OR2D3
T3 sequence (whole entry): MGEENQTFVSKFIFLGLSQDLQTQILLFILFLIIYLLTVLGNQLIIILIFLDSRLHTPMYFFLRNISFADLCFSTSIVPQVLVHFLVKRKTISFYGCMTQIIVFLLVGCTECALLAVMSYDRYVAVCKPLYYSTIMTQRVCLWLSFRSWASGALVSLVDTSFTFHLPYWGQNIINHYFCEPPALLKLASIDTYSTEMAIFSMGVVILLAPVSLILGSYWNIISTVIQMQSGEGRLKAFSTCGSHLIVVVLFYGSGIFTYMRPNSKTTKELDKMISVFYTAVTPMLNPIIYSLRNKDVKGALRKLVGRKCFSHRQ
How it was run: as §1

[4] = target: T4, OR2F1 (Homo sapiens) (UniProt Q13607)
T4 sequence (whole entry): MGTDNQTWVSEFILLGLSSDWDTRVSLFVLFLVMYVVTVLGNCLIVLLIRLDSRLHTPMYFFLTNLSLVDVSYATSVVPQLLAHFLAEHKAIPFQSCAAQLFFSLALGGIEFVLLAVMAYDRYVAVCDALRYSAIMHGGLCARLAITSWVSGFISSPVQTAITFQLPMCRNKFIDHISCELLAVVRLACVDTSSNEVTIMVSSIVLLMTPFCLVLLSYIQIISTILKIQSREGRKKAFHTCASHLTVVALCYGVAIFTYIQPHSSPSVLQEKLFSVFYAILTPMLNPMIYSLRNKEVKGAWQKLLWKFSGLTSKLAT
How it was run: as §1

[5] = tested on: T5, OR2F2
T5 sequence (whole entry): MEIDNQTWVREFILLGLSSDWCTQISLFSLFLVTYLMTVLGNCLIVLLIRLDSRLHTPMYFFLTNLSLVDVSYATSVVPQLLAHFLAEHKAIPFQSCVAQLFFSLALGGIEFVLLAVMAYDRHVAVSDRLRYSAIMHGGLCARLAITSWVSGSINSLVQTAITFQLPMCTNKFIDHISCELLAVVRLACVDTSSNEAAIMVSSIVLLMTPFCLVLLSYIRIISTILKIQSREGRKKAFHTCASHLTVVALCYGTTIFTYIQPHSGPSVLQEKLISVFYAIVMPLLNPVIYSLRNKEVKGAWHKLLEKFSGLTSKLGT
How it was run: as §1

[6] = tested on: T6, OR2G2
T6 sequence (whole entry): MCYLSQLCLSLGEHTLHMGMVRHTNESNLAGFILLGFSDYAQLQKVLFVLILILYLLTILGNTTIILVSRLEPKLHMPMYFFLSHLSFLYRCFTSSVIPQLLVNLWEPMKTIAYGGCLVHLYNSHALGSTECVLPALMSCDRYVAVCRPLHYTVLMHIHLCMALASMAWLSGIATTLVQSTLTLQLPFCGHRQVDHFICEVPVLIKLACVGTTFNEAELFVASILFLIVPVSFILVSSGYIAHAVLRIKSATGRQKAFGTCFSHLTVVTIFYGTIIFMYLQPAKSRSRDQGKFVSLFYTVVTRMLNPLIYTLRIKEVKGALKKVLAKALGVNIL
How it was run: as §1

[7] = tested on: T7, OR2G2; remark: listed apart in the source
T7 sequence (whole entry): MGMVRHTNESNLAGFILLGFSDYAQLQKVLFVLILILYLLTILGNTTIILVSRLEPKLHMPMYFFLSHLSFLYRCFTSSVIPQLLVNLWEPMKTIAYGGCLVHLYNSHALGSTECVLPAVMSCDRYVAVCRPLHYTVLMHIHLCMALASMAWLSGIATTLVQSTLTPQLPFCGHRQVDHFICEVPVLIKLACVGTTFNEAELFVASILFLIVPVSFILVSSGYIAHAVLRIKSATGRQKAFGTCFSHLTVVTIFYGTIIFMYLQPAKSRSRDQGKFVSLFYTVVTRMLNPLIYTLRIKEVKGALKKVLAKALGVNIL
How it was run: as §1

[8] = target: T8, OR2G3 (Homo sapiens) (UniProt Q8NGZ4)
T8 sequence (whole entry): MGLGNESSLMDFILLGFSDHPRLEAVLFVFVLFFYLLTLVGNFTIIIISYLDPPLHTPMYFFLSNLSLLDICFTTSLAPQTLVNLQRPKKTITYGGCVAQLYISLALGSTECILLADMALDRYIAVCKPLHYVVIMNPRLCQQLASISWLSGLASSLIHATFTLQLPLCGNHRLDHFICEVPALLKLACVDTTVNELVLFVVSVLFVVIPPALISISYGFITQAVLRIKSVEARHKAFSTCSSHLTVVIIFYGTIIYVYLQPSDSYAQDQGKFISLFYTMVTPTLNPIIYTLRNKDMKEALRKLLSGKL
How it was run: as §1

[9] = tested on: T9, OR2G3
T9 sequence (whole entry): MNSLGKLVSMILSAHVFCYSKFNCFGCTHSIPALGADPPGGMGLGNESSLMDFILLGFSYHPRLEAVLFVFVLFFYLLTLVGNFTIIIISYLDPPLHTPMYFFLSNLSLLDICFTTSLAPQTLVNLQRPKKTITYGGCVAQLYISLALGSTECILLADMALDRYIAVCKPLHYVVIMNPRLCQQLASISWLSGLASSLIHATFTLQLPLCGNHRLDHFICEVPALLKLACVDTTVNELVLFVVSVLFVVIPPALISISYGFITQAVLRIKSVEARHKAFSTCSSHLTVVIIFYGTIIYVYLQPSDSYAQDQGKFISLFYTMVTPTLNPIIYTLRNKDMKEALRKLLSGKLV
How it was run: as §1

[10] = target: T10, OR2G6 (Homo sapiens) (UniProt Q5TZ20)
T10 sequence (whole entry): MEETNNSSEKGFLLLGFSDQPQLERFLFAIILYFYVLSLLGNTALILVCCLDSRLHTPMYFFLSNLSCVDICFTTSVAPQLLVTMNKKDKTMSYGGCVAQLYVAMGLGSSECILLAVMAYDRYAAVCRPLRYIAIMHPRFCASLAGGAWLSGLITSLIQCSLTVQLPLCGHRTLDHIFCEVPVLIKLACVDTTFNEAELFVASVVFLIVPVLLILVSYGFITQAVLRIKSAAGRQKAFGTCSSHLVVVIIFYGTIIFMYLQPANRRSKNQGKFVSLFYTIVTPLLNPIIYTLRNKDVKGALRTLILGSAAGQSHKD
How it was run: as §1

[11] = target: T11, OR2H1 (Homo sapiens) (UniProt Q9GZK4)
T11 sequence (whole entry): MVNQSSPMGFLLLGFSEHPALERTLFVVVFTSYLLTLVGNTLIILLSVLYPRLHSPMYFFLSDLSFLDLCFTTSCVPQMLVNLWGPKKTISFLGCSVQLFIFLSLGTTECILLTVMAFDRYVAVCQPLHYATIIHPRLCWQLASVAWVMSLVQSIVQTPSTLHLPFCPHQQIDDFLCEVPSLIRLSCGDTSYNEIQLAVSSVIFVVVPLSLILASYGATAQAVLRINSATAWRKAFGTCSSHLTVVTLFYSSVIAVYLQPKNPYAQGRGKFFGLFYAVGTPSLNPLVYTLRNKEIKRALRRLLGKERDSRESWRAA
How it was run: as §1

[12] = tested on: T12, OR2H2
T12 sequence (whole entry): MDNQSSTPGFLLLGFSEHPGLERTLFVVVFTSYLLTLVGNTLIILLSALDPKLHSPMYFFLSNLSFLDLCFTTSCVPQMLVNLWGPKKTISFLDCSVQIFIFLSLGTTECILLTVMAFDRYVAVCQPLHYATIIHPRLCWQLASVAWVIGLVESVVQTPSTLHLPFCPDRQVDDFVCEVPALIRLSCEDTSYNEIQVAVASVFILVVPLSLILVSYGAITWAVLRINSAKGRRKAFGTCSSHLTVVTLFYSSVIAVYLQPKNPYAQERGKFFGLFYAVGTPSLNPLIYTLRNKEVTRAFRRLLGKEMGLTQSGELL
How it was run: as §1

[13] = target: T13, OR2G2 (Homo sapiens) (UniProt Q8NGZ5)
T13 sequence (whole entry): T7 sequence (whole entry) with A24P, P167L, G236R
How it was run: as §1

Row | SMILES | odorant receptor agonist call [1] | odorant receptor agonist call [2] | odorant receptor agonist call [3] | odorant receptor agonist call [4] | odorant receptor agonist call [5] | odorant receptor agonist call [6] | odorant receptor agonist call [7] | odorant receptor agonist call [8] | odorant receptor agonist call [9] | odorant receptor agonist call [10] | odorant receptor agonist call [11] | odorant receptor agonist call [12] | odorant receptor agonist call [13]
1 | CCCCCCOC(=O)CCC | inactive | inactive | inactive | inactive | inactive | inactive | inactive | inactive | inactive | inactive | inactive | inactive | –
2 | CC(C)C=O | inactive | inactive | inactive | inactive | inactive | inactive | inactive | inactive | inactive | inactive | inactive | inactive | –
3 | c1cnccn1 | inactive | inactive | inactive | inactive | inactive | inactive | inactive | inactive | inactive | inactive | inactive | inactive | –
4 | CC1=CCC(C(C)(C)O)CC1 (stereo not drawn) | inactive | inactive | inactive | inactive | inactive | inactive | inactive | inactive | inactive | inactive | inactive | inactive | –
5 | CCCCCC(C)=O | – | – | inactive | inactive | inactive | inactive | inactive | inactive | inactive | inactive | inactive | inactive | inactive
6 | CC1COCc2cc3c(cc21)C(C)(C)C(C)C3(C)C (stereo not drawn) | active | inactive | active | inactive | active | active | active | active | inactive | active | active | active | –
7 | CC1CCC(C(C)C)C(O)C1 (stereo not drawn) | active | inactive | inactive | inactive | inactive | inactive | inactive | inactive | inactive | active | inactive | inactive | –
